Values quoted from earlier work, collected in US20050208156A1, “Plants extracts and the use thereof” (Lichtwer Pharma GmbH, priority 2002, published 2005).
At least one compound was matched to its structure with a doubt left.

Test system: thought disorders owing to the administration of ketamine
Conditions: in vivo

CN1CCN(C2=Nc3cc(Cl)ccc3Nc3ccccc32)CC1 [clozapine]
Effect on ketamine-induced thought disorders: reduced
